The values that follow come from patent US11639494B2, “Culture medium” (Vitrolife Sweden AB, priority 2015, dated 2023).

The data set relates to glutathione (GSH). In words: BSO/MCB probe dosage optimisation and verification of MCB specificity to glutathione. The format is cell-based, mice. The procedure: Embryos were cultured in groups of 10 in 20 ul drops of media under paraffin oil (Ovoil, Vitrolife) in 6% CO2, 20% O2 74% N2 at 37° C. in a humidified multi gas incubator (Sanyo MCOK-5M[RC], Japan). Half of the embryos were allocated to the control group and the other half to the treatment group. Control group embryos were cultured in G-1™ medium (G-1™ with HSA-Solution™, Vitrolife) […]. Treatment group embryos were likewise cultured with the optimal triple antioxidant dose supplemented in the G-1™ medium (as determined in Example 2).
Immediately after collection, pronucleate control embryos were incubated in G-1™ medium spiked with BSO at doses of 0, 50, 100, 200, 400, 800, 1600 μM for 4 hours at 6% CO2, 20% O2 74% N2 at 37° C. Embryos were rinsed thoroughly in G-1™ with HSA-Solution™ media and placed individually in 2 μl drops of GMOPS with HSA-Solution™ (G-MOPS™ Plus, Vitrolife AB, Sweden) made on glass bottom dishes (Fluorodish, Coherent Scientific, Australia) and overlayed with paraffin oil (Ovoil, Vitrolife) for fluorescence imaging. Optimal dosage was determined by recording the fluorescence at 360±40 nm/460±40 nm excitation/emission wavelengths under a fluorescence microscope (Nikon Eclipse TS100). Results were calculated by subtracting the values of blank (embryos with no BSO exposure) and basal levels of the culture media from the fluorescence recorded. […]

`CCCCS(=N)(=O)CCC(N)C(=O)O` (centres unmarked) [BSO, buthionine sulfoximine] yielded an Optimal probe dose (4 hours in G-1 medium) of 200 µM.
`Cc1c(C)n2c(CCl)c(C)c(=O)n2c1=O` [MCB, monochlorobimane]: the Optimal probe dose (15 minutes in G-1 medium) amounted to 10 μM/ml.
